Some of the results follow. These are further read-outs of the screen, such as a control signal, another cell line or another target. No call is given for them. Compounds called inactive in the main read-out are mostly missing here. Potencies come from curve fits of mixed quality, noted in brackets.
Experiment: Cell signaling CRE-BLA (Fsk stim)
Settings: CHO CRE-bla reporter (cAMP response element driving beta-lactamase), forskolin EC10, beta-lactamase ratio; measured here: 460 nm blue channel
Method in brief: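 The 460nm/530nm emission ratio after CCF4 loading defined %Activity, from which AC50 values were obtained. CRE-bla CHO cells received compound dilution series together with an EC10 level of NKH 477 for 3 hours at 37 degrees Celsius.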

| SMILES | AC50 |
| --- | --- |
| Cc1ccccc1OCCCCCn1ccnc1 | 25.1 µM [falling, single point] |
| OC(COc1ccc(Cl)c2ccccc12)CN1CCN(c2ccccn2)CC1 (stereo not given) | 0.01 µM [falling, full curve] |
| O=C(CC1(O)C(=O)Nc2ccccc21)c1ccc(-n2cccc2)cc1 (stereo not given) | 0.316 µM [rising, full curve] |
| CCN(Cc1cc2cc(C)ccc2[nH]c1=O)C(=O)c1cccc(OC)c1 | 1 µM [falling, partial curve] |
| CN1CCN(S(=O)(=O)c2ccc(NC(=O)C3CCCO3)cc2)CC1 (stereo not given) | 12.6 µM [falling, partial curve, poor fit] |
| O=C(NCc1ccccn1)C1CCN(S(=O)(=O)c2cccs2)CC1 | 0.158 µM [falling, full curve] |
| COc1ccc(OC)c(NC(=O)CSc2nnc(-c3ccco3)n2-c2ccccc2)c1 | 2.51 µM [rising, full curve] |
| CCOC(=O)C(NC(=O)CCC(=O)Nc1ccc(S(N)(=O)=O)cc1)C(O)c1ccccc1 (stereo not given) | 0.398 µM [rising, full curve] |
| O=C(CN1CCCCC1)Nc1nnc(-c2ccccc2)s1 | 2.51 µM [falling, partial curve, poor fit] |
| NC(=O)c1cc2ccc(O)cc2oc1=NCc1ccccc1 | 10 µM [rising, partial curve] |
| CCOCCCN1C(=O)CN(C2CCCCCC2)C(=O)C1c1ccc(OC)cc1 (stereo not given) | 0.398 µM [rising, full curve] |
| CC(C)CCn1c(SCC#N)nc2c(sc3ccccc32)c1=O | 7.94 µM [rising, partial curve] |
| CC(C)C[C@H](NC(=O)N1CCN(c2ccccc2)CC1)C(=O)O | 3.16 µM [falling, partial curve, poor fit] |
| C=CCn1c(SCc2csc(C)n2)nc2sc3c(c2c1=O)CCCCC3 | 2 µM [rising, full curve, poor fit] |
| C=CCOC(=O)C(C#N)c1nc2ccccc2nc1N1CCN(Cc2ccccc2)CC1 (stereo not given) | 10 µM [rising, partial curve] |
| O=C1CN(C(=O)CN2CCCC2)C(c2ccccc2)c2cc(Br)ccc2N1 (stereo not given) | 25.1 µM [falling, single point] |
| CCc1nc2sc(C)c(C)c2c(=O)n1CCO | 12.6 µM [rising, single point] |
| O=C(CSc1n[nH]c(-c2ccncc2)n1)NC1CCS(=O)(=O)C1 (stereo not given) | 2.51 µM [falling, partial curve, poor fit] |
| O=c1c2ccccc2nnn1CSc1nc2cc(Cl)ccc2c(=O)n1Cc1ccco1 | 1.26 µM [falling, partial curve] |
| COC(=O)C1CCN(C(=O)c2ccc(NC(C)=O)cc2)CC1 | 0.316 µM [rising, partial curve] |
| Clc1ccccc1Cn1nnc2c(N3CCCC3)ncnc21 | 10 µM [rising, partial curve] |
| Cn1nnnc1SCc1ccc(C(=O)Nc2nccs2)cc1 | 10 µM [rising, single point] |
| COc1ccc(N2CCN(Cc3nc4c(c(=O)n(C)c(=O)n4C)n3CCc3ccccc3)CC2)cc1 | 12.6 µM [rising, single point] |

A draw from above in order of count of non-hydrogen atoms, high to low:

| SMILES | AC50 |
| --- | --- |
| CCN(Cc1cc2cc(C)ccc2[nH]c1=O)C(=O)c1cccc(OC)c1 | 1 µM [falling, partial curve] |
| O=C(CSc1n[nH]c(-c2ccncc2)n1)NC1CCS(=O)(=O)C1 (stereo not given) | 2.51 µM [falling, partial curve, poor fit] |
| Cn1nnnc1SCc1ccc(C(=O)Nc2nccs2)cc1 | 10 µM [rising, single point] |
| CCc1nc2sc(C)c(C)c2c(=O)n1CCO | 12.6 µM [rising, single point] |

Remaining list, next part:

| SMILES | AC50 |
| --- | --- |
| COc1nc(-c2ccccc2)cc(-c2ccccc2)n1 | 15.8 µM [rising, partial curve] |
| CN(C)CC(C(=O)c1ccccc1)c1ccccc1 (stereo not given) | 3.16 µM [falling, partial curve] |
| COc1ccc(C(=O)N2CCN(Cc3ccccc3C)CC2)cc1OC | 12.6 µM [falling, partial curve] |
| Cc1ccccc1-n1nc2c(c1NC(=O)c1c(-c3ccccc3Cl)noc1C)CSC2 | 3.98 µM [falling, partial curve] |
| CCn1c(SCC(=O)c2cc(OC)ccc2OC)nnc1-c1ccncc1 | 10 µM [falling, partial curve] |
| CCOc1ccccc1OCCCCN1CCCC1 | 12.6 µM [falling, partial curve] |
| CCCC(=O)Nc1cc(Cl)ccc1N1CCN(C(=O)CC)CC1 | 0.0794 µM [falling, full curve] |
| CCOC(=O)c1cnn2c(C(F)(F)F)cc(-c3ccccc3)nc12 | 15.8 µM [rising, partial curve] |
| COc1ccc(C2=NOC(C(=O)Nc3ccc(C(C)=O)cc3)C2)cc1OC (stereo not given) | 5.01 µM [falling, partial curve] |
| Clc1cccc(Cl)c1COc1ccncc1 | 5.01 µM [falling, single point] |
| Cn1nnnc1Sc1ncnc2scc(-c3ccc(F)cc3)c12 | 6.31 µM [rising, partial curve] |
| C(=N\n1cnnc1)/c1cn(Cc2ccccc2)c2ccccc12 | 10 µM [rising, single point] |
| COCCNc1ncnc2ccc(-c3c(C)noc3C)cc12 | 5.01 µM [rising, partial curve] |
| CCCn1c(=O)c(C(=O)Nc2nnc(C)s2)c(O)c2ccccc21 | 12.6 µM [falling, single point] |
| COCCNC(=O)CN(c1ccccc1OC)S(C)(=O)=O | 2.51 µM [falling, partial curve] |
| Cc1nc(-c2ccccc2)cc(N2CCCC2)n1 | 0.126 µM [rising, full curve] |
| CCCCc1n[nH]c2c1/C(=N/O)CC(c1ccccc1)C2 (stereo not given) | 0.126 µM [falling, partial curve] |
| COC(=O)Cc1c(C)c2cc(Cl)c(OC(=O)c3ccco3)cc2oc1=O | 15.8 µM [rising, partial curve] |
| c1ccc2nc3c(nc2c1)[nH]c1ccccc13 | 5.01 µM [rising, partial curve] |
| O=C(Nc1ccc(S(=O)(=O)N2CCOCC2)cc1)c1ccc(Cl)s1 | 15.8 µM [rising, single point] |
| COc1ccc(C(O)P(=O)(OC2CCCCC2)c2ccc(N(C)C)cc2)cc1OC (stereo not given) | 0.794 µM [falling, partial curve] |
| Cc1ccccc1-c1nc(CN2CCC(C(=O)NCCC3=CCCCC3)CC2)c(C)o1 | 10 µM [falling, partial curve] |
